# Measured values reported in the supplement of paper PMC4604168 (melanoma cell lines).
# The other results are listed elsewhere or left out. Repeats are few or missing, and single values can be far off.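 Imaging used 1,536-well plates; nuclei positive for cleaved PARP by antibody were divided by total DNA-stained nuclei to yield the apoptosis fraction. Doses for screening kept most cells viable, and cell lines differ markedly in resting and induced cleaved-PARP levels.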
# Tested on: LOXIMVI
# Test: cleaved PARP positive nuclei fraction relative to DMSO control; melanoma cells; higher = more apoptosis
# Details: library dose: low library concentration; 72 h
row,Compound,cleaved PARP positive nuclei fraction [%]
1,"O=c1[nH]nc(Sc2ncc([N+](=O)[O-])s2)n1-c1ccc2c(c1)OCCO2 + CS(=O)(=O)CCNCc1ccc(-c2ccc3ncnc(Nc4ccc(OCc5cccc(F)c5)c(Cl)c4)c3c2)o1 [lapatinib] (first compound 0.2 µM, partner dose 0.8 µM)",114
2,"COc1cc([C@@H]2c3cc4c(cc3[C@@H](O[C@@H]3O[C@@H]5CO[C@@H](C)O[C@H]5[C@H](O)[C@H]3O)[C@H]3COC(=O)[C@H]23)OCO4)cc(OC)c1O [etoposide] + CO[C@H]1C[C@@H]2CC[C@@H](C)[C@@](O)(O2)C(=O)C(=O)N2CCCC[C@H]2C(=O)O[C@H]([C@H](C)C[C@@H]2CC[C@@H](OCCO)[C@H](OC)C2)CC(=O)[C@H](C)/C=C(\C)[C@@H](O)[C@@H](OC)C(=O)[C@H](C)C[C@H](C)/C=C/C=C/C=C/1C [everolimus] (first compound 0.02 µM, partner dose 0.02 µM)",85.5
3,"Cc1cn(-c2cc(NC(=O)c3ccc(C)c(Nc4nccc(-c5cccnc5)n4)c3)cc(C(F)(F)F)c2)cn1 [nilotinib] + Nc1cccc2c1CN(C1CCC(=O)NC1=O)C2=O [lenalidomide] (first compound 0.2 µM, partner dose 1 µM)",102
4,"Cc1ccc(Nc2nccc(N(C)c3ccc4c(C)n(C)nc4c3)n2)cc1S(N)(=O)=O [Pazopanib] + CNC(=O)c1cc(Oc2ccc(NC(=O)Nc3ccc(Cl)c(C(F)(F)F)c3)cc2)ccn1 [sorafenib] (first compound 0.4 µM, partner dose 0.4 µM)",69.8
5,"O=c1[nH]nc(Sc2ncc([N+](=O)[O-])s2)n1-c1ccc2c(c1)OCCO2 + CS(=O)(=O)c1ccc(C(=O)Nc2ccc(Cl)c(-c3ccccn3)c2)c(Cl)c1 [vismodegib] (first compound 0.2 µM, partner dose 1 µM)",113

# Tested on: MEL-HO
# Test: as above
# Details: library dose: low library concentration; 72 h
row,Compound,cleaved PARP positive nuclei fraction [%]
1,"Cc1cn(-c2cc(NC(=O)c3ccc(C)c(Nc4nccc(-c5cccnc5)n4)c3)cc(C(F)(F)F)c2)cn1 [nilotinib] + CNC(=O)c1cc(Oc2ccc(NC(=O)Nc3ccc(Cl)c(C(F)(F)F)c3)cc2)ccn1 [sorafenib] (first compound 0.2 µM, partner dose 0.4 µM)",82.2
2,"O=c1[nH]nc(Sc2ncc([N+](=O)[O-])s2)n1-c1ccc2c(c1)OCCO2 + Nc1nc(F)nc2c1ncn2[C@@H]1O[C@H](CO)[C@@H](O)[C@@H]1O [fludarabine] (first compound 0.2 µM, partner dose 0.2 µM)",117
3,"Cc1cn(-c2cc(NC(=O)c3ccc(C)c(Nc4nccc(-c5cccnc5)n4)c3)cc(C(F)(F)F)c2)cn1 [nilotinib] + CCCS(=O)(=O)Nc1ccc(F)c(C(=O)c2c[nH]c3ncc(Cl)cc23)c1F [PLX4720] (first compound 0.2 µM, partner dose 0.08 µM)",150
4,"O=C(Nc1cc(C(F)(F)F)cc(C(F)(F)F)c1)c1cc(Cl)ccc1O + CC(=O)O[C@@]12CO[C@@H]1C[C@H](O)[C@@]1(C)C(=O)[C@H](O)C3=C(C)[C@@H](OC(=O)[C@H](O)[C@@H](NC(=O)OC(C)(C)C)c4ccccc4)C[C@@](O)([C@@H](OC(=O)c4ccccc4)[C@H]21)C3(C)C [Docetaxel] (first compound 0.016 µM, partner dose 0.0001 µM)",158
5,"O=C(/C=C/c1cccnc1)NCCCCC1CCN(C(=O)c2ccccc2)CC1 + Nc1nc(F)nc2c1ncn2[C@@H]1O[C@H](CO)[C@@H](O)[C@@H]1O [fludarabine] (first compound 0.01 µM, partner dose 0.2 µM)",63.1
6,"N#CC[C@H](C1CCCC1)n1cc(-c2ncnc3[nH]ccc23)cn1 [ruxolitinib] + NC1(c2ccc(-c3nc4ccn5c(=O)[nH]nc5c4cc3-c3ccccc3)cc2)CCC1 [MK2206] (first compound 1 µM, partner dose 0.4 µM)",156
7,"CCCCCCCCCCCCCCCCCCOP(=O)([O-])OC1CC[N+](C)(C)CC1 [Perifosine] + Cn1c(=O)n(-c2ccc(C(C)(C)C#N)cc2)c2c3cc(-c4cnc5ccccc5c4)ccc3ncc21 [NVP-BEZ235] (first compound 0.4 µM, partner dose 0.004 µM)",84.6
